PubChem BioAssay AID1259296 – Sanger Institute | 2017
In all, the deposit lists 160 reagents; shown is an unselected part. 45 of them (28%) were called active. 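Calls are per single siRNA duplex in CAR1 cells only; how the synergy score is calculated is not stated.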 The numbers tell different reagents against one gene apart. Viability is capped at 1. The record does not give: the amount of reagent, the time to read-out.

Aim: 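Kinase genes whose silencing works synergistically with colorectal cancer drugs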 (follow-up of hits)
System: CAR1 human colorectal cancer cells
Knock-down reagent: single siRNA against human genes
Conditions: anchor drugs BYL719 at 1 µM, cetuximab at 5 µg/ml or trametinib at 10 nM, or DMSO vehicle, added a day after transfection
Measurement: 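Viability as a fraction of control pool 2 (non-targeting), replicate mean; for every anchor drug, a synergy score comparing combined effect with drug and siRNA individually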
Direction: synergy with BYL719 and synergy with cetuximab and synergy with trametinib: higher = stronger synergy between knock-down and drug; viability, siRNA plus trametinib and viability, siRNA alone (DMSO): higher = more viable cells
Hit rule: 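Called active if the synergy score with at least one anchor drug is above 0.10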

gene	reagent no.	synergy with BYL719	synergy with cetuximab	synergy with trametinib	viability, siRNA plus trametinib (fraction of control)	viability, siRNA alone (DMSO) (fraction of control)	activity call
MAPKAPK2 (MAPK activated protein kinase 2)	1	0.036	-0.0791	-0.0801	0.941	0.861	inactive
MAPKAPK2 (MAPK activated protein kinase 2)	2	-0.122	-0.0439	0.0216	0.978	1	inactive
MAPKAPK2 (MAPK activated protein kinase 2)	3	-0.0544	-0.0144	-0.0475	1	0.952	inactive
MAPKAPK2 (MAPK activated protein kinase 2)	4	-0.0572	-0.107	-0.0837	1	0.916	inactive
SYNCRIP (synaptotagmin binding cytoplasmic RNA interacting protein)	1	0.131	0.00819	0.138	0.805	0.943	active
SYNCRIP (synaptotagmin binding cytoplasmic RNA interacting protein)	2	-0.0473	-0.0238	0.0386	0.949	0.988	inactive
SYNCRIP (synaptotagmin binding cytoplasmic RNA interacting protein)	3	0.0981	-0.0308	0.0281	0.502	0.53	inactive
SYNCRIP (synaptotagmin binding cytoplasmic RNA interacting protein)	4	-0.0478	-0.0516	-0.0351	0.866	0.831	inactive
PIM1 (Pim-1 proto-oncogene, serine/threonine kinase)	1	0.0237	-0.0315	0.173	0.547	0.72	active
PIM1 (Pim-1 proto-oncogene, serine/threonine kinase)	2	-0.0181	0.0397	-0.0541	1	0.946	inactive
PIM1 (Pim-1 proto-oncogene, serine/threonine kinase)	3	-0.0486	0.035	0	1	1	inactive
PIM1 (Pim-1 proto-oncogene, serine/threonine kinase)	4	0.00933	-0.0357	0.0995	0.812	0.911	inactive
MPP3 (MAGUK p55 scaffold protein 3)	1	-0.0183	-0.0288	0.112	0.804	0.916	active
MPP3 (MAGUK p55 scaffold protein 3)	2	0.057	-0.064	0.128	0.688	0.816	active
MPP3 (MAGUK p55 scaffold protein 3)	3	-0.00646	-0.0604	0.116	0.651	0.767	active
MPP3 (MAGUK p55 scaffold protein 3)	4	0.0275	0.0318	0.157	0.425	0.583	active
AK2 (adenylate kinase 2)	1	-0.0114	-0.0439	0.0768	0.923	1	inactive
AK2 (adenylate kinase 2)	2	-0.0794	-0.14	-0.00713	0.897	0.889	inactive
AK2 (adenylate kinase 2)	3	-0.122	-0.0439	0	1	1	inactive
AK2 (adenylate kinase 2)	4	0.0202	0.061	0.158	0.774	0.932	active
MAPK4 (mitogen-activated protein kinase 4)	1	0.185	0.0599	0.253	0.638	0.891	active
MAPK4 (mitogen-activated protein kinase 4)	2	0.047	0.0055	-0.0311	0.862	0.831	inactive
MAPK4 (mitogen-activated protein kinase 4)	3	0.0487	0.0375	0.042	0.897	0.939	inactive
MAPK4 (mitogen-activated protein kinase 4)	4	-0.00621	-0.0514	-0.11	0.693	0.583	inactive
GUCY2D (guanylate cyclase 2D, retinal)	1	-0.0806	-0.105	-0.0316	0.933	0.901	inactive
GUCY2D (guanylate cyclase 2D, retinal)	2	0.115	-0.0452	0.148	0.699	0.847	active
GUCY2D (guanylate cyclase 2D, retinal)	3	-0.0466	-0.0435	0.0336	0.755	0.789	inactive
GUCY2D (guanylate cyclase 2D, retinal)	4	-0.00631	-0.0607	0.0556	0.927	0.982	inactive
PFKFB3 (6-phosphofructo-2-kinase/fructose-2,6-biphosphatase 3)	1	0.0518	0.00952	-0.0908	0.989	0.898	inactive
PFKFB3 (6-phosphofructo-2-kinase/fructose-2,6-biphosphatase 3)	2	-0.014	0.0271	0.0138	0.883	0.897	inactive
PFKFB3 (6-phosphofructo-2-kinase/fructose-2,6-biphosphatase 3)	3	-0.124	-0.0761	-0.0662	0.974	0.908	inactive
PFKFB3 (6-phosphofructo-2-kinase/fructose-2,6-biphosphatase 3)	4	-0.0981	0.0211	0.0223	0.893	0.916	inactive
NLK (nemo like kinase)	1	0.145	0.155	-0.00102	0.906	0.905	active
NLK (nemo like kinase)	2	0.214	0.0954	0.232	0.534	0.766	active
NLK (nemo like kinase)	3	-0.07	-0.0521	-0.00849	0.951	0.942	inactive
NLK (nemo like kinase)	4	-0.118	-0.0821	-0.0668	1	0.933	inactive
BMPR2 (bone morphogenetic protein receptor type 2)	1	-0.0312	-0.0538	-0.0103	1	0.99	inactive
BMPR2 (bone morphogenetic protein receptor type 2)	2	0.0829	-0.000355	-0.00758	0.943	0.936	inactive
BMPR2 (bone morphogenetic protein receptor type 2)	3	-0.09	-0.0377	-0.0323	1	0.968	inactive
BMPR2 (bone morphogenetic protein receptor type 2)	4	-0.113	0.0248	0	1	1	inactive
PIK3CA	1	0.0632	0.0164	0.0614	0.711	0.773	inactive
PIK3CA	2	-0.117	-0.0428	0.0902	0.847	0.937	inactive
PIK3CA	3	0.00287	-0.0674	0.0422	0.844	0.886	inactive
PIK3CA	4	-0.118	-0.0639	0.000647	0.892	0.892	inactive
EPHA6 (EPH receptor A6)	1	0.0435	-0.0695	0.0947	0.633	0.728	inactive
EPHA6 (EPH receptor A6)	2	0.179	0.0538	0.153	0.557	0.71	active
EPHA6 (EPH receptor A6)	3	0.144	0.204	0.235	0.561	0.796	active
EPHA6 (EPH receptor A6)	4	-0.0263	0.0538	0.0908	0.909	1	inactive
CDK6 (cyclin dependent kinase 6)	1	0.201	-0.0708	0.16	0.757	0.917	active
CDK6 (cyclin dependent kinase 6)	2	0.11	-0.00266	0.128	0.59	0.718	active
CDK6 (cyclin dependent kinase 6)	3	-0.0522	-0.00483	0.164	0.814	0.978	active
CDK6 (cyclin dependent kinase 6)	4	0.0746	0.028	0.141	0.824	0.965	active
